# Reference: patent US20250074891A1 (Anaxis Pharma Pty Ltd., priority 2021, published 2025)
# By UniProt entry, the sequences of proteins in these tests, tags left out.
# UniProt Q9Y572, whole entry: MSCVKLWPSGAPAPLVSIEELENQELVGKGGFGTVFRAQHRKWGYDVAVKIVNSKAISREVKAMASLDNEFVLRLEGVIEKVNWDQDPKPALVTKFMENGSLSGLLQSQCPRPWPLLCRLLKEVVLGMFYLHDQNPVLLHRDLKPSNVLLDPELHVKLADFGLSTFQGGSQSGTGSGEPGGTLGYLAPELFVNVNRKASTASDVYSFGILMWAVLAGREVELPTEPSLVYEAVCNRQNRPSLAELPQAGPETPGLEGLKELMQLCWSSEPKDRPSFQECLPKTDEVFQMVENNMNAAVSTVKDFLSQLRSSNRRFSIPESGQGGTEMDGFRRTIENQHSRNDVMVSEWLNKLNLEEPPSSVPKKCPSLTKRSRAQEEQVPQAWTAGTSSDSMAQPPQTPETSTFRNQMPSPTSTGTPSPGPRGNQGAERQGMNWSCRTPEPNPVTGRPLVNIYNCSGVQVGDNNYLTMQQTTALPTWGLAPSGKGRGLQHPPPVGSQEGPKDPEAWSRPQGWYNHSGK
# UniProt Q8NB16, whole entry: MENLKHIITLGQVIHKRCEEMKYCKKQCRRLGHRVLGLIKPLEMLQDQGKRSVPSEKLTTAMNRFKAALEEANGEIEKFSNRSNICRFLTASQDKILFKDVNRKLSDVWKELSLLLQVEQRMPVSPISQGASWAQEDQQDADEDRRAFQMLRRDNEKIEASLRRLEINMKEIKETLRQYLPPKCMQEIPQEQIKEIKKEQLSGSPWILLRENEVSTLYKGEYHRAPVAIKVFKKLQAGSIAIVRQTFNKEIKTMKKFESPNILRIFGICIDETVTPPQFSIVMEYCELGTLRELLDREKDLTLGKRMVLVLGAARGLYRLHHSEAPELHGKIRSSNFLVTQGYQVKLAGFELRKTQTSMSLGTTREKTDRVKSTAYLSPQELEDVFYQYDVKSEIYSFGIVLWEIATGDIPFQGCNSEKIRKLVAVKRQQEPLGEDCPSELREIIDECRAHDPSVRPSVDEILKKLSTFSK
# Like-named read-outs stand apart in the source and are kept apart here. The structures given here were assigned with low confidence; some may be wrong.
# Assays:
# [1] = target: RIP3 (Homo sapiens (Human), UniProt Q9Y572); test: KINOMEscan binding assay, RIP3; settings: read-out: RIP3 (KD), Table 35
# [2] = target: MLKL (full length) (Homo sapiens (Human), UniProt Q8NB16); test: KINOMEscan binding assay, MLKL (full length)
# [3] = tested on: U937 cells; test: Counter screen: cell viability without TSQ cocktail (off-target effect); settings: read-out: Off-target effect (IC50 cell-based assay), Table 38
# [4] = tested on: U937 human histiocytic leukemia cell line; test: Cellular assay: inhibition of TSQ induced necroptosis (CellTitre-Glo); settings: read-out: Inhibition of TSQ-induced necroptosis (IC50 cell-based assay); U937 cells, TSQ cocktail, 48 hours, Table 38
# [5] = target: endogenous MLKL in U937 (Homo sapiens (Human), UniProt Q8NB16); test: Degradation assay: degradation of endogenous MLKL in human cells (Western blot); settings: read-out: Degradation of endogenous MLKL in U937 (DC50 cell-based assay in μM), 24 h incubation
Kd [1] [nM],"Kd ([2]; read-out: MLKL (KD), Table 35) [nM]",SMILES,IC50 [3] [nM],IC50 [4] [nM],DC50 [5] [µM],"Kd ([2]; read-out: MLKL (KD), Table 36) [nM]"
1000 to 30000,10 to 1000,"NC(=O)c1c(-c2ccc(NS(=O)(=O)Cc3cccc(Cl)c3)cc2)n[nH]c1Nc1cccc(C(F)(F)F)n1 [Compound 9, 3-(4-(((3-chlorophenyl)methyl)sulfonamido)phenyl)-5-((6-(trifluoromethyl)pyridin-2-yl)amino)-1H-pyrazole-4-carboxamide]",,,,
,,CCS(=O)(=O)Nc1ccc(-c2n[nH]c(Nc3ccc(C(=O)NCCCC(=O)N[C@H](C(=O)N4C[C@H](O)C[C@H]4C(=O)NCc4ccc(-c5scnc5C)cc4)C(C)(C)C)cn3)c2C(N)=O)cc1O[C@@H](C)c1ccc(F)cc1,> 10000,< 1000,< 1,< 10
